Literature values, collected in patent US7361643B2, “Methods for inhibiting angiogenesis” (University of Puerto Rico, priority 2000, dated 2008).
Some results were stated once for a whole list of compounds, not compound by compound. Some ranges recur; such a range may be that of the whole group of compounds.

Test system: capillary endothelial cells
Conditions: addition to the media; cited from earlier work

CC(C)NCC(O)c1ccc(O)c(O)c1 (stereo not shown) [isoproterenol]
reduction of the cell doubling time: 20 to 55 h
